{"source": "paper doi:10.1101/2025.11.10.687237", "molecules": {"B1": {"name": "Cin8 (yeast kinesin-5) (protein, UniProt P27895 1-1000)", "chain": "MPAENQNTGQDRSSNSISKNGNSQVGCHTVPNEELNITVAVRCRGRNEREISMKSSVVVNVPDITGSKEISINTTGDTGITAQMNAKRYTVDKVFGPGASQDLIFDEVAGPLFQDFIKGYNCTVLVYGMTSTGKTYTMTGDEKLYNGELSDAAGIIPRVLLKLFDTLELQQNDYVVKCSFIELYNEELKDLLDSNSNGSSNTGFDGQFMKKLRIFDSSTANNTTSNSASSSRSNSRNSSPRSLNDLTPKAALLRKRLRTKSLPNTIKQQYQQQQAVNSRNNSSSNSGSTTNNASSNTNTNNGQRSSMAPNDQTNGIYIQNLQEFHITNAMEGLNLLQKGLKHRQVASTKMNDFSSRSHTIFTITLYKKHQDELFRISKMNLVDLAGSENINRSGALNQRAKEAGSINQSLLTLGRVINALVDKSGHIPFRESKLTRLLQDSLGGNTKTALIATISPAKVTSEETCSTLEYASKAKNIKNKPQLGSFIMKDILVKNITMELAKIKSDLLSTKSKEGIYMSQDHYKNLNSDLESYKNEVQECKREIESLTSKNALLVKDKLKSKETIQSQNCQIESLKTTIDHLRAQLDKQHKTEIEISDFNNKLQKLTEVMQMALHDYKKRELDLNQKFEMHITKEIKKLKSTLFLQLNTMQQESILQETNIQPNLDMIKNEVLTLMRTMQEKAELMYKDCVKKILNESPKFFNVVIEKIDIIRVDFQKFYKNIAENLSDISEENNNMKQYLKNHFFKNNHQELLNRHVDSTYENIEKRTNEFVENFKKVLNDHLDENKKLIMQNLTTATSAVIDQEMDLFEPKRVKWENSFDLINDCDSMNNEFYNSMAATLSQIKSTVDTSSNSMNESISVMKGQVEESENAISLLKNNTKFNDQFEQLINKHNMLKDNIKNSITSTHSHITNVDDIYNTIENIMKNYGNKENATKDEMIENILKEIPNLSKKMPLRLSNINSNSVQSVISPKKHAIEDENKSSENVDNEGSRKMLKIE"}}, "key": {"[1]": {"target": "T1, Slx5 (SUMO-targeted ubiquitin ligase) (budding yeast) (UniProt P32828)", "T1 sequence": "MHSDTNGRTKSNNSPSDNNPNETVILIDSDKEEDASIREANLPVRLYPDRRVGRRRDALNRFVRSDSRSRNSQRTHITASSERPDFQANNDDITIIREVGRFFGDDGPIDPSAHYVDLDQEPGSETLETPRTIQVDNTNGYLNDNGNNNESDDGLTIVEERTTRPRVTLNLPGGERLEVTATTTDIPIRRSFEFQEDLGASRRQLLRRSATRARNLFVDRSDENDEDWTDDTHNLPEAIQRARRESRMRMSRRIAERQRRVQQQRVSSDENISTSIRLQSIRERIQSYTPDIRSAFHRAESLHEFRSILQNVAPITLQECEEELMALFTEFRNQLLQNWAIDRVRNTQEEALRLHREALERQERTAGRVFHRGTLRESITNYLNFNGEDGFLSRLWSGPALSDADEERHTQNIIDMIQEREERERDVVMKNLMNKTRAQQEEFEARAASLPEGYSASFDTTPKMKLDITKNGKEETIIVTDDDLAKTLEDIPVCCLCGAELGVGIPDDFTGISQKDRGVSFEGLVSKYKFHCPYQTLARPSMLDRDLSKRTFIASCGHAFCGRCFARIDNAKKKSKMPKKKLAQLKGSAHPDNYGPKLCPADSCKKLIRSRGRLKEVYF", "assay": "two-hybrid"}, "[2]": {"target": "Slx5^ΔSIM (budding yeast) (UniProt P32828)", "assay": "two-hybrid"}}, "note": "No constants are given. Whether binding was seen depends on the method and setting. For some assays here: A result given as binding can be weak or reduced; the word gives no strength."}
{"molecule": "Cin8-5R (budding yeast)", "values": [{"measurement": "binding", "setting": "[1]", "result": "binds"}]}
{"molecule": "B1", "values": [{"measurement": "binding", "setting": "[2]", "result": "no binding"}]}
